Measurements as given in patent US10688099B2, “Methods for modulating the amount of RNA transcripts” (PTC Therapeutics, Inc., priority 2013, dated 2020).
The source gives many values for each of these; only a part stands here.

Tested on: RNA isoforms in PNN 1-46 SMA type I patient-derived fibroblasts
Test: RNA Abundance Modulation (RNA isoform abundance, iFPM, HiSeq RNA sequencing)
Assay type: cell-based, human
Conditions: 3 μM
Experimental: Cells from a cell line of interest are cultured in conditions sufficient to yield the number of cells capable of generating enough RNA for subsequent sequencing steps. Cells from the tested cell line are contacted with a compound described herein.
To culture said cells, they are seeded, at appropriate concentrations in a volume of media in a cell culture container and incubated for 4, 5, 6, 7, 8, 9, 10, or more hours. A concentrated solution of compound in a vehicle (e.g., DMSO) is then added in sufficient volume to result in the intended final concentration of the compound, for example 100 nM, 500 nM, 1 μM, 5 μM, 10 μM, 15 μM, 20 μM, or more. The cells may also be treated with vehicle alone, as a control. A number of replicates of each concentration or control may be made (e.g., 2 replicates). The cells are then incubated at a constant temperature appropriate for cell culture of the particular cell line (e.g., 37° C.) for 6, 12, 18, 24, 48, or more hours. After incubation, the growth medium is removed and the cells are washed with the appropriate buffer (e.g., PBS). Cells are then removed from adherence to the cell culture container by treatment with a solution containing trypsin, and the trypsin subsequently quenched with the appropriate volume of buffer (e.g., DMEM-FBS). The cells are then pelleted with gentle centrifugation (e.g., ≤90×g centrifugal force) and resuspended in a buffer to lyse the cells for extraction of RNA. The cell lysates may then be frozen (e.g., at −80° C.) or, alternately, may immediately be used in a procedure to purify the RNA (e.g. by use of the RNEASY PLUS® minikit). The RNA from cell lysates is eluted in the appropriate volume of buffer (e.g., RNEASE-FREE H2O®). The resulting purified RNA may then be sequenced (e.g., using RNASeq) or analyzed using a human exon array (e.g., by GENECHIP® human exon array) to determine changes in the RNA levels in those cells treated with compound compared to those cells treated only with DMSO. The purified RNA may also be quantified by other methods known in the art.
Using the RNA data obtained from sequencing, exon array, or other methods, a statistical analysis can reveal changes in the RNA levels of compound-treated compared with control. For example, t-test p-values may be calculated for the data obtained through sequencing and exon array methods in order to compare compound-treated cells to those treated with the DMSO control. […] Analysis of the sequencing and exon array data may then also yield predictions about the cause of the aberrant amount of an RNA transcript in the cells (e.g., perturbation of RNA splicing, RNA transcription, or RNA stability). These predictions may be further confirmed by methods known in the art. For example, RT-PCR and RT-qPCR may be used to confirm the change in amount of RNA transcripts for one or more particular transcripts of interest.
Following the methods described above in Example 1, PNN 1-46 SMA type I patient-derived fibroblasts were treated with 300 nM or 3 μM Compounds 774 and 808 in 0.5% DMSO.
700,000 cells were seeded in 10 mL of medium (DMEM plus 10% FBS) in a T-75 flask. Cells were allowed to attach for at least 4 hrs, after which 50 μL of a 200× compound solution (100% DMSO) was added to each well, and the plate was incubated at 37° C. for 24 hrs.
At the end of the incubation period, the supernatant was removed and the cells where washed with PBS. TrypLE (Invitrogen) express solution was added (e.g. 1.5 mL per one T75 flask). The flasks were incubated for 3 to 5 min at 37° C. The trypsin was then quenched, e.g., by adding 10 mL DMEM-FBS.
Next, the cells were pelleted using gentle centrifugation without exceeding 90×g centrifugal force. The supernatant was removed and the cell pellet was re-suspended in 600 μL RLT buffer (the RLT buffer was supplemented with beta-mercaptoethanol according to the RNeasy protocol manual) by pipetting up and down until the pellet was completely dissolved […]

CCc1nc(C)cn2nc(-c3cc(=O)n4cc(C5CCN(C)CC5)cc(C)c4n3)cc12 [Compound 774]
FC (x + 1) (FAF1 AK293659): 0.7848
L2FC (x + 1) (FAF1 AK293659): −0.350
L2abs (Cpd-DMSO) (FAF1 AK293659): 1.43
abs (Cpd-DMSO) (FAF1 AK293659): 3 iFPM
amp FC (x + 1) (FAF1 AK293659): 1.27
ave Cpd (FAF1 AK293659): 9 iFPM
FC (x + 1) (FAF1 NM_007051): 0.2556
L2FC (x + 1) (FAF1 NM_007051): −1.968
L2abs (Cpd-DMSO) (FAF1 NM_007051): 10.32
abs (Cpd-DMSO) (FAF1 NM_007051): 1281 iFPM
amp FC (x + 1) (FAF1 NM_007051): 3.91
ave Cpd (FAF1 NM_007051): 439 iFPM
FC (x + 1) (FAM198B AK172805): 0.8219
L2FC (x + 1) (FAM198B AK172805): −0.283
L2abs (Cpd-DMSO) (FAM198B AK172805): −1.48
abs (Cpd-DMSO) (FAM198B AK172805): 0 iFPM
amp FC (x + 1) (FAM198B AK172805): 1.22
ave Cpd (FAM198B AK172805): 1 iFPM
FC (x + 1) (FAM198B NM016613): 0.7385
L2FC (x + 1) (FAM198B NM016613): −0.437
L2abs (Cpd-DMSO) (FAM198B NM016613): 6.42
abs (Cpd-DMSO) (FAM198B NM016613): 85 iFPM
amp FC (x + 1) (FAM198B NM016613): 1.35
ave Cpd (FAM198B NM016613): 240 iFPM
FC (x + 1) (FAM198B NM_001031700): 4.5905
L2FC (x + 1) (FAM198B NM_001031700): 2.199
L2abs (Cpd-DMSO) (FAM198B NM_001031700): 1.84
abs (Cpd-DMSO) (FAM198B NM_001031700): 4 iFPM
amp FC (x + 1) (FAM198B NM_001031700): 4.59
ave Cpd (FAM198B NM_001031700): 4 iFPM
FC (x + 1) (FAM198B NM_001128424): 0.0125
L2FC (x + 1) (FAM198B NM_001128424): −6.324
L2abs (Cpd-DMSO) (FAM198B NM_001128424): 6.31
abs (Cpd-DMSO) (FAM198B NM_001128424): 79 iFPM
amp FC (x + 1) (FAM198B NM_001128424): 80.12
ave Cpd (FAM198B NM_001128424): 0 iFPM
FC (x + 1) (FAM219B BC006348): 2.6547
L2FC (x + 1) (FAM219B BC006348): 1.409
L2abs (Cpd-DMSO) (FAM219B BC006348): 7.57
abs (Cpd-DMSO) (FAM219B BC006348): 191 iFPM
amp FC (x + 1) (FAM219B BC006348): 2.65
ave Cpd (FAM219B BC006348): 305 iFPM
FC (x + 1) (FAM219B BC064575): 0.4302
L2FC (x + 1) (FAM219B BC064575): −1.217
L2abs (Cpd-DMSO) (FAM219B BC064575): 5.27
abs (Cpd-DMSO) (FAM219B BC064575): 39 iFPM
amp FC (x + 1) (FAM219B BC064575): 2.32
ave Cpd (FAM219B BC064575): 28 iFPM
FC (x + 1) (FAM219B NM_020447): 0.8639
L2FC (x + 1) (FAM219B NM_020447): −0.211
L2abs (Cpd-DMSO) (FAM219B NM_020447): 6.23
abs (Cpd-DMSO) (FAM219B NM_020447): 75 iFPM
amp FC (x + 1) (FAM219B NM_020447): 1.16
ave Cpd (FAM219B NM_020447): 475 iFPM
FC (x + 1) (FBXO9 NM_012347): 0.5321
L2FC (x + 1) (FBXO9 NM_012347): −0.910
L2abs (Cpd-DMSO) (FBXO9 NM_012347): 3.35
abs (Cpd-DMSO) (FBXO9 NM_012347): 10 iFPM
amp FC (x + 1) (FBXO9 NM_012347): 1.88
ave Cpd (FBXO9 NM_012347): 11 iFPM
FC (x + 1) (FBXO9 NM_033480): 0.4922
L2FC (x + 1) (FBXO9 NM_033480): −1.023
L2abs (Cpd-DMSO) (FBXO9 NM_033480): 9.09
abs (Cpd-DMSO) (FBXO9 NM_033480): 545 iFPM
amp FC (x + 1) (FBXO9 NM_033480): 2.03
ave Cpd (FBXO9 NM_033480): 527 iFPM
FC (x + 1) (FBXO9 NM_033481): 0.2022
L2FC (x + 1) (FBXO9 NM_033481): −2.306
L2abs (Cpd-DMSO) (FBXO9 NM_033481): 4.83
abs (Cpd-DMSO) (FBXO9 NM_033481): 28 iFPM
amp FC (x + 1) (FBXO9 NM_033481): 4.94
ave Cpd (FBXO9 NM_033481): 6 iFPM
FC (x + 1) (FBXO10 BC125124): 15.6883
L2FC (x + 1) (FBXO10 BC125124): 3.972
L2abs (Cpd-DMSO) (FBXO10 BC125124): 3.88
abs (Cpd-DMSO) (FBXO10 BC125124): 15 iFPM
amp FC (x + 1) (FBXO10 BC125124): 15.69
ave Cpd (FBXO10 BC125124): 15 iFPM
FC (x + 1) (FBXO10 BC125125): 5.9612
L2FC (x + 1) (FBXO10 BC125125): 2.576
L2abs (Cpd-DMSO) (FBXO10 BC125125): 8.01
abs (Cpd-DMSO) (FBXO10 BC125125): 258 iFPM
amp FC (x + 1) (FBXO10 BC125125): 5.96
ave Cpd (FBXO10 BC125125): 309 iFPM
FC (x + 1) (FBXO10 NM_012166): 1.0172
L2FC (x + 1) (FBXO10 NM_012166): 0.025
L2abs (Cpd-DMSO) (FBXO10 NM_012166): 2.21
abs (Cpd-DMSO) (FBXO10 NM_012166): 5 iFPM
amp FC (x + 1) (FBXO10 NM_012166): 1.02
ave Cpd (FBXO10 NM_012166): 272 iFPM
FC (x + 1) (FDFT1 AK057726): 1.3413
L2FC (x + 1) (FDFT1 AK057726): 0.424
L2abs (Cpd-DMSO) (FDFT1 AK057726): 1.32
abs (Cpd-DMSO) (FDFT1 AK057726): 2 iFPM
amp FC (x + 1) (FDFT1 AK057726): 1.34
ave Cpd (FDFT1 AK057726): 9 iFPM
FC (x + 1) (FDFT1 AK296043): 21.2109
L2FC (x + 1) (FDFT1 AK296043): 4.407
L2abs (Cpd-DMSO) (FDFT1 AK296043): 4.34
abs (Cpd-DMSO) (FDFT1 AK296043): 20 iFPM
amp FC (x + 1) (FDFT1 AK296043): 21.21
ave Cpd (FDFT1 AK296043): 20 iFPM
FC (x + 1) (FDFT1 AK297868): 1.7107
L2FC (x + 1) (FDFT1 AK297868): 0.775
L2abs (Cpd-DMSO) (FDFT1 AK297868): 6.24
abs (Cpd-DMSO) (FDFT1 AK297868): 76 iFPM
amp FC (x + 1) (FDFT1 AK297868): 1.71
ave Cpd (FDFT1 AK297868): 181 iFPM
FC (x + 1) (FDFT1 AK300059): 0.3881
L2FC (x + 1) (FDFT1 AK300059): −1.365
L2abs (Cpd-DMSO) (FDFT1 AK300059): 0.66
abs (Cpd-DMSO) (FDFT1 AK300059): 2 iFPM
amp FC (x + 1) (FDFT1 AK300059): 2.58
ave Cpd (FDFT1 AK300059): 0 iFPM
FC (x + 1) (FDFT1 AK300245): 3.8106
L2FC (x + 1) (FDFT1 AK300245): 1.930
L2abs (Cpd-DMSO) (FDFT1 AK300245): 4.22
abs (Cpd-DMSO) (FDFT1 AK300245): 19 iFPM
amp FC (x + 1) (FDFT1 AK300245): 3.81
ave Cpd (FDFT1 AK300245): 24 iFPM
FC (x + 1) (FDFT1 AK301617): 5.4553
L2FC (x + 1) (FDFT1 AK301617): 2.448
L2abs (Cpd-DMSO) (FDFT1 AK301617): 2.55
